The values that follow come from publication PMC11775196.

Sequences of proteins named here, by UniProt entry; tags and fusion partners are left off.
UniProt Q12857: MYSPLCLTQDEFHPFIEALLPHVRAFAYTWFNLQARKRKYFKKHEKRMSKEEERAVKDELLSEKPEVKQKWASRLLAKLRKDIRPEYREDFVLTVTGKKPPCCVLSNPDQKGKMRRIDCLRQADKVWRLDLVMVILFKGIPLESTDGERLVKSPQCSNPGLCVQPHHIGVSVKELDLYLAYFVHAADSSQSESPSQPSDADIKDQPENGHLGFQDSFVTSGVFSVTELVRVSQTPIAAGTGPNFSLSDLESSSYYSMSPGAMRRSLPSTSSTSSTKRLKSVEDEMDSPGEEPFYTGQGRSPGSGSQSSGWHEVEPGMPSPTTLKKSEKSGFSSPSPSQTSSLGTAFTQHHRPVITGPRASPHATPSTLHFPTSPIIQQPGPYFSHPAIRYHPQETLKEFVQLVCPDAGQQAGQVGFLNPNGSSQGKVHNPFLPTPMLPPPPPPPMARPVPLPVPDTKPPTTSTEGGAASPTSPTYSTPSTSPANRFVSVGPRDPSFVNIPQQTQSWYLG
UniProt P08651: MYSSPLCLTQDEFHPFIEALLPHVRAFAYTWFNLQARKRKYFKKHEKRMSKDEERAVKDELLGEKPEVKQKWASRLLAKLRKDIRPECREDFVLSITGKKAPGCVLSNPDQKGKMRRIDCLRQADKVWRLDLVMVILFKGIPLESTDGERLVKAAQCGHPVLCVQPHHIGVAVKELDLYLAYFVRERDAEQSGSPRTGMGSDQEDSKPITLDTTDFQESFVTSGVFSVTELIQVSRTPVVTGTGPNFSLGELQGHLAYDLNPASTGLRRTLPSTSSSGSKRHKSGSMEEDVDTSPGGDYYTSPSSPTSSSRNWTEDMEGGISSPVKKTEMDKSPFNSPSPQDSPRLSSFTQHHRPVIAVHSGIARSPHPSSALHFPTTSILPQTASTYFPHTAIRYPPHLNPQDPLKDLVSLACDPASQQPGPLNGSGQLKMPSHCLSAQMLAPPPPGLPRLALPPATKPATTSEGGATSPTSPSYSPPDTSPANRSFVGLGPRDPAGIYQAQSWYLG
UniProt Q12824: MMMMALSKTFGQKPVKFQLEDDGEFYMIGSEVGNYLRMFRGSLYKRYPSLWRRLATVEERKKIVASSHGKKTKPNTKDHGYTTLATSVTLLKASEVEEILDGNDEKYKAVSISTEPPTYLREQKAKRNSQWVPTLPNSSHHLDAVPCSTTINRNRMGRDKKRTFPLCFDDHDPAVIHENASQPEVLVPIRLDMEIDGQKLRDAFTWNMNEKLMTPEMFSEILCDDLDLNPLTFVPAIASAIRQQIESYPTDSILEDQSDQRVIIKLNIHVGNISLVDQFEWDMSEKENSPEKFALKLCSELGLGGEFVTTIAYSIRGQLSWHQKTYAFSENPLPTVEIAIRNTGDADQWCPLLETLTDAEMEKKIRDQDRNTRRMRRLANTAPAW
UniProt Q92922: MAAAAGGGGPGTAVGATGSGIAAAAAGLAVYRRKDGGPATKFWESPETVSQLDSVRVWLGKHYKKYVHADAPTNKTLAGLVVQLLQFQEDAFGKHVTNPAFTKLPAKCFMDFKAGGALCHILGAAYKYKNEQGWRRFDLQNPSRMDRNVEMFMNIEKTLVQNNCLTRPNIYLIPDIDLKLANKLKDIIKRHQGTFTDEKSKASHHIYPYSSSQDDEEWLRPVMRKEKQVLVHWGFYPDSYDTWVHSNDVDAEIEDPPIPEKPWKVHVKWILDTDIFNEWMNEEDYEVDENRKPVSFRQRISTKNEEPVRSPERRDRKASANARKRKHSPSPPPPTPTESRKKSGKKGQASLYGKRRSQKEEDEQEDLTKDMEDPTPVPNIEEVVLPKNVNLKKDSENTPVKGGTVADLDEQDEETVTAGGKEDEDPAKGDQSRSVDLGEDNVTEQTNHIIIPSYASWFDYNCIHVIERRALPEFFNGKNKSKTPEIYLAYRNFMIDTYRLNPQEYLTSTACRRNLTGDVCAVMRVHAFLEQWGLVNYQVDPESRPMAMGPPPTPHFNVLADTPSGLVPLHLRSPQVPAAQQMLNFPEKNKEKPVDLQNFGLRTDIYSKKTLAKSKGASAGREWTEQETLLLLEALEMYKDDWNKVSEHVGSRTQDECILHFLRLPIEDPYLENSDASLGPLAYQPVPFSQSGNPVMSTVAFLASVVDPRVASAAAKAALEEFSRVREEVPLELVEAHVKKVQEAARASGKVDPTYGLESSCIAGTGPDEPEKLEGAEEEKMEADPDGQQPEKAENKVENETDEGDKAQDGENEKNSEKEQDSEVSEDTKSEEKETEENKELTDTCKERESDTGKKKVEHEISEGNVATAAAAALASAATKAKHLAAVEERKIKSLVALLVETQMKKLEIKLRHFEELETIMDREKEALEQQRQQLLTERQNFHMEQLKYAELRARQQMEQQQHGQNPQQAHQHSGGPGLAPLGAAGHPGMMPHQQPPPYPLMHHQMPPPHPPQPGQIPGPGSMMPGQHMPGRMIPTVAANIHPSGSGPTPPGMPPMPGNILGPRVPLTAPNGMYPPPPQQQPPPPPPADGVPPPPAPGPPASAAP
UniProt Q969G3: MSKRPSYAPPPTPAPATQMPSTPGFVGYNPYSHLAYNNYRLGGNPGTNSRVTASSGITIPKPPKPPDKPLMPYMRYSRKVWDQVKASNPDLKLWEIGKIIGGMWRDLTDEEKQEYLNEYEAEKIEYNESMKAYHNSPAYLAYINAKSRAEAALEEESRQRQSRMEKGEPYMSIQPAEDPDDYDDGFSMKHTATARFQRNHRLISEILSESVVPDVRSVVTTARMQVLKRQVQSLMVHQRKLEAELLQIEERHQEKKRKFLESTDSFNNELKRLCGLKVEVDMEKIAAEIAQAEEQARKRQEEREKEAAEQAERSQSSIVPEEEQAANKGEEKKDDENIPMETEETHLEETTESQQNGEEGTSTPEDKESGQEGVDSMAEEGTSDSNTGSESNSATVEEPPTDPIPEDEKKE

No constants are given. Whether binding was seen depends on the method and setting. In cells and extracts the contact can be indirect. A yes stands for co-enrichment or nearness to the bait. Other partners may have been found.

Test [1] concerns the target MAC3-N-tagged NFIA (human) (UniProt Q12857). The experiment in a line: affinity purification with mass spectrometry; MAC3-N-tagged NFI baits in Flp-In T-REx 293 cells induced with 2 ug/ml tetracycline for 24 h; lysis in 50 mM HEPES pH 8.0, 5 mM EDTA, 150 mM NaCl, 50 mM NaF, 0.5% NP40; capture on Strep-Tactin beads, elution with biotin; HCIs at SAINT BFDR <=0.05 against MAC3-N-tagged GFP.

The target of test [2] is MAC3-N-tagged NFIC (human) (UniProt P08651). Described as above.

For SMARCB1 (from UniProt Q12824 1-385), the binding entry in test [1] and in test [2] was “binds” throughout.

In the case of SMARCC1 (from UniProt Q92922 1-1105), the binding result in test [1] and in test [2] was “binds” each time.

In the case of SMARCE1 (from UniProt Q969G3 1-411), the binding result in test [1] and in test [2] was “binds” throughout.
